Assay [1] concerns the target GST-tagged EVH1 domain of Mena (human) (UniProt Q8N8S7). Nature of the assay: pull-down; pull-down with bacterially expressed recombinant proteins (Figures 1C-E, S2B); which partner was on the resin is not told; both purified.
Assay [2] deals with GST-tagged EVH1 domain of Evl (UniProt Q9UI08). The description is as above.
Assay [3] addresses GST-tagged EVH1 domain of VASP (UniProt P50552). The description is as above.
The target in assay [4] is T1, GST-EVH1-Ena (Drosophila) (UniProt Q8T4F7).
T1 sequence: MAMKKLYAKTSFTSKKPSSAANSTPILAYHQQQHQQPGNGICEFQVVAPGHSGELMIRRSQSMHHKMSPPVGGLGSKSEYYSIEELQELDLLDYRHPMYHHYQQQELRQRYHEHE
Nature of the assay: pull-down; Ena EVH1 resin on Drosophila S2 cell extracts, immunoblot for dAbi and WAVE; only the target purified. (In western blotting, separated proteins are transferred to a membrane and probed.)

Sequences of proteins named here, by UniProt entry; tags and fusion partners are left off. A change or cut given only in a name is not applied to a line headed by its entry. A line that says so, or that is headed by a name, gives the form on record, which may keep a tag or linker.
UniProt Q9UI08: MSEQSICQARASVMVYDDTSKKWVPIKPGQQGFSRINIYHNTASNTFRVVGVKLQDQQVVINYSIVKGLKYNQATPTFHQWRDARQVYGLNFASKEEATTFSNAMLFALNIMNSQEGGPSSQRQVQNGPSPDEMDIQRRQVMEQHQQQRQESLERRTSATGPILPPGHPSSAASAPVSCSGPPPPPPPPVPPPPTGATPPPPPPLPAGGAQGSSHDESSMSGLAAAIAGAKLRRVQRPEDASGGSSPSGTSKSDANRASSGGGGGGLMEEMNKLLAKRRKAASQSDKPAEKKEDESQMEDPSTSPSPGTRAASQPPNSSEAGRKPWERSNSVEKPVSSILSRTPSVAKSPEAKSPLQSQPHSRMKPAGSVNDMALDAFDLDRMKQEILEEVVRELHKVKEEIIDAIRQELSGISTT
UniProt P50552: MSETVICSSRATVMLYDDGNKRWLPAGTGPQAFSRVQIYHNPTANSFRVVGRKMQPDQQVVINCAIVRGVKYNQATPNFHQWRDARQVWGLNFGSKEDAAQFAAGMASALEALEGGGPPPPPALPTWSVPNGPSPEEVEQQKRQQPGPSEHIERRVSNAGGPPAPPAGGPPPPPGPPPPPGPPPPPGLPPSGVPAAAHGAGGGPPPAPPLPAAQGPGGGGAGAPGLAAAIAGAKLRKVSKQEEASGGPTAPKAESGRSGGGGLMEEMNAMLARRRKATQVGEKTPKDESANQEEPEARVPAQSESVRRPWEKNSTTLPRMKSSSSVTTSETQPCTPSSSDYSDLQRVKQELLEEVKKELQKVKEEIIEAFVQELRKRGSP
UniProt Q9Y2A7: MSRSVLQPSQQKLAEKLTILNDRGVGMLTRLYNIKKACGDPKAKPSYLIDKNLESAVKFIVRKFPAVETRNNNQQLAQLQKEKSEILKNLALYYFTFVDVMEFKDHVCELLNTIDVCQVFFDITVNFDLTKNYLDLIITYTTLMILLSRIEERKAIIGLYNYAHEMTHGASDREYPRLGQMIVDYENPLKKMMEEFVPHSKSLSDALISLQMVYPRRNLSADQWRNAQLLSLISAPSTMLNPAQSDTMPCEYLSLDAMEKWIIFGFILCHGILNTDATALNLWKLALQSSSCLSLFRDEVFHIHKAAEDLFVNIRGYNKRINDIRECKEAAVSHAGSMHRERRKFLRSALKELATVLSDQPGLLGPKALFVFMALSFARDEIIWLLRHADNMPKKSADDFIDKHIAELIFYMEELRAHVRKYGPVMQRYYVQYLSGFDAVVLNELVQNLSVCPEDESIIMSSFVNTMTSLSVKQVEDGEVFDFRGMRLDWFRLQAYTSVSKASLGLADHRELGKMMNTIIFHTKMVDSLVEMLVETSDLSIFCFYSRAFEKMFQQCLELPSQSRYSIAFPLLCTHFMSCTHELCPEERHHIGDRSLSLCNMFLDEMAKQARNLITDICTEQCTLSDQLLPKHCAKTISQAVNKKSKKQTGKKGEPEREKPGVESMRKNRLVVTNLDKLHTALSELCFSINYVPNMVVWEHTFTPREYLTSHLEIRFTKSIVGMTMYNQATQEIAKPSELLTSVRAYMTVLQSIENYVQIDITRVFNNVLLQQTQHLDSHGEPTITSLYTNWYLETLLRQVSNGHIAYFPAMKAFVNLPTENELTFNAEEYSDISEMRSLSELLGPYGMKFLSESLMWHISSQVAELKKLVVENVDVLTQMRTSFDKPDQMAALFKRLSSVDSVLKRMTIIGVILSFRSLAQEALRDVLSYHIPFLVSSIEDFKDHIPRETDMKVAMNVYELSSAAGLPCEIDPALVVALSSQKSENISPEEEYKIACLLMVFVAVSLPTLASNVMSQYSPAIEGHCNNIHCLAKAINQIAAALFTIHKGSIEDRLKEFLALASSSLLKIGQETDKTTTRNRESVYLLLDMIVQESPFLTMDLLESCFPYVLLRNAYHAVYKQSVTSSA
human Abi1 (bacterially expressed) (Q8IZP0-5, form named): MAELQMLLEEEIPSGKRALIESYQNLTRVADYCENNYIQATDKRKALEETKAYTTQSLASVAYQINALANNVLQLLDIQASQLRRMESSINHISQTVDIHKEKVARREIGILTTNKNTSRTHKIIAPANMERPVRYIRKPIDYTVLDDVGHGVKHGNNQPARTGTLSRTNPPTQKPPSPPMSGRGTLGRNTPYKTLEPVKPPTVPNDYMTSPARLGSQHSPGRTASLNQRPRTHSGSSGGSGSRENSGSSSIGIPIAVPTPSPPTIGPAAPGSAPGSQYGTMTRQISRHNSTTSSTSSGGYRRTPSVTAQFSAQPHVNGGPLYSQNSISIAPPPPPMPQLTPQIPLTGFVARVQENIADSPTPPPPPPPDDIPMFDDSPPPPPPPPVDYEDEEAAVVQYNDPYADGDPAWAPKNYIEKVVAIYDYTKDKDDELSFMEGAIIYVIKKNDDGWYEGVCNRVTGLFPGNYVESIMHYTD
UniProt Q9NYB9: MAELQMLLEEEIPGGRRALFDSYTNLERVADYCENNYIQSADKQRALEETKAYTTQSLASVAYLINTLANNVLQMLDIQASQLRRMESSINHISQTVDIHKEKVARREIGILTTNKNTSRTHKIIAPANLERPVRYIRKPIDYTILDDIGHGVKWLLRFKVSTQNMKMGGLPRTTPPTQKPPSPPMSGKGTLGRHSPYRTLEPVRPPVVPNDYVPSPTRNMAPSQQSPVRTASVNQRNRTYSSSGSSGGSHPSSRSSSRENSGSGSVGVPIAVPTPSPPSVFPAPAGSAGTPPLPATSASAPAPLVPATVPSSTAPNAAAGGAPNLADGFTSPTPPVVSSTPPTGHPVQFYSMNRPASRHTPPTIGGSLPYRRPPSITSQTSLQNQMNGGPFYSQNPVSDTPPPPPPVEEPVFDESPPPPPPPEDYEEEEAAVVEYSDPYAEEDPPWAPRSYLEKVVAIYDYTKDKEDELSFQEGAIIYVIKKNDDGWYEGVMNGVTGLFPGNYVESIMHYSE
UniProt Q9Y6W5: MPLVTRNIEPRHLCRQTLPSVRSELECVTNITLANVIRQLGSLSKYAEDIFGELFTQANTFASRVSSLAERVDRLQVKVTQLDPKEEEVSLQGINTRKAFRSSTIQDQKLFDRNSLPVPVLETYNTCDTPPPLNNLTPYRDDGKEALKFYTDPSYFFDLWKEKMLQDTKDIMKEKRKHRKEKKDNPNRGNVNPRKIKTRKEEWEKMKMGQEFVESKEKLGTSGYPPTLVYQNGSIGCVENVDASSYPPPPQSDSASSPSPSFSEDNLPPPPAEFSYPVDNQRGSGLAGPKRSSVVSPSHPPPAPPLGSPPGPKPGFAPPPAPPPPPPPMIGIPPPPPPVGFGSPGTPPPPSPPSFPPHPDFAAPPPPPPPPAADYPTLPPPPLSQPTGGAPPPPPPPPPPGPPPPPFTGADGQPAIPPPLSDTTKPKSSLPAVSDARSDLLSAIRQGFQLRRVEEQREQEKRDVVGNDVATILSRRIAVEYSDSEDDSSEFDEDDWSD
UniProt Q92558: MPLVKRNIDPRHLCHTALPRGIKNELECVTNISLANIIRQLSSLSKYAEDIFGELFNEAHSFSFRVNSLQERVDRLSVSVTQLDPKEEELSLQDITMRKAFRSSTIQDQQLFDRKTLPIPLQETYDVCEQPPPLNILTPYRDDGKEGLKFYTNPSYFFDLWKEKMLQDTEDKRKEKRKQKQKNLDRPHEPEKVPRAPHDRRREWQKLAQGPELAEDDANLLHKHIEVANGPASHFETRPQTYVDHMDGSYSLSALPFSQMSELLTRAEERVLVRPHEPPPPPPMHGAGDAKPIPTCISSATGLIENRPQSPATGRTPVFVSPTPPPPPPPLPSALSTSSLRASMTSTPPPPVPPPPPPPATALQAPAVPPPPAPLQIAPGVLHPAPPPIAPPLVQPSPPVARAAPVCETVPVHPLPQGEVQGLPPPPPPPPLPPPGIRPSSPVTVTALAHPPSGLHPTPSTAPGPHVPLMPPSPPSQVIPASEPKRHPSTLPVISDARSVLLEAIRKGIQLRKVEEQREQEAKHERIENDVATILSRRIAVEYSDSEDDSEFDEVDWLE

Assay [5] has as its target T1, GST-EVH1-Ena (Drosophila). Nature of the assay: pull-down; GST-EVH1 Ena resin on lysates of cells expressing wild-type or LPPPP-mutant dAbi, immunoblot; only the target purified.
Assay [6] has as its target GST-tagged EVH1 domain of Mena (human) (UniProt Q8N8S7). Nature of the assay: pull-down; pull-down with bacterially expressed recombinant proteins (Figures 1C-E, S2B); which partner was on the resin is not told; both purified. The source holds these as a separate data set.

Read-outs that look alike come from different tables or passages of the source. No constants are given. Whether binding was seen depends on the method and setting. For some assays here: Binding calls can cover weak binding; strength is not graded here. For some assays here: In cells and extracts the contact can be indirect. For some assays here: Tags and fused reporters may be left off the sequences shown.

In the case of “human Nap1 (bacterially expressed) (from UniProt Q9Y2A7)”, the binding entry in assay [1] is “no binding”.

As to “human Abi1 (bacterially expressed) (from UniProt Q8IZP0-5 1-476)”, the binding result in assay [2] and in assay [3] was “binds” in each case.

“human Abi2 (bacterially expressed) (from UniProt Q9NYB9 1-513)”: in assay [1], the binding result is “binds”.

Take “human WAVE2 (bacterially expressed) (from UniProt Q9Y6W5 1-498)”: in assay [1], the binding entry was “binds”.

As for “human WAVE1 (bacterially expressed) (from UniProt Q92558 1-559)”, the binding entry in assay [1] is “binds”.

Consider “dAbi (endogenous, S2 cells) (Drosophila (endogenous in S2))”, for which the binding result in assay [4] is on record as “binds”.

GFP-tagged dAbiΔEna (Drosophila): the binding entry in assay [5] is given as “no binding”.

Consider “WAVE (endogenous, S2 cells) (Drosophila (endogenous in S2))”, for which the binding result in assay [4] is reported as “binds”.

GFP-tagged dAbi (Drosophila): the binding result in assay [5] is recorded as “binds”.

B1: human WAVE3 (bacterially expressed) (protein, UniProt Q9UPY6 1-502)
chain: MPLVKRNIEPRHLCRGALPEGITSELECVTNSTLAAIIRQLSSLSKHAEDIFGELFNEANNFYIRANSLQDRIDRLAVKVTQLDSTVEEVSLQDINMKKAFKSSTVQDQQVVSKNSIPNPVADIYNQSDKPPPLNILTPYRDDKKDGLKFYTDPSYFFDLWKEKMLQDTEDKRKEKRRQKEQKRIDGTTREVKKVRKARNRRQEWNMMAYDKELRPDNRLSQSVYHGASSEGSLSPDTRSHASDVTDYSYPATPNHSLHPQPVTPSYAAGDVPPHGPASQAAEHEYRPPSASARHMALNRPQQPPPPPPPQAPEGSQASAPMAPADYGMLPAQIIEYYNPSGPPPPPPPPVIPSAQTAFVSPLQMPMQPPFPASASSTHAAPPHPPSTGLLVTAPPPPGPPPPPPGPPGPGSSLSSSPMHGPPVAEAKRQEPAQPPISDARSDLLAAIRMGIQLKKVQEQREQEAKREPVGNDVATILSRRIAVEYSDSDDDSEFDENDWSD
With B1, the binding entry in assay [6] is given as “no binding”.

(Values after article PMC4165403.)
